# Laboratory results published in the supplement of paper PMC10338343.
# ± gives the standard deviation. Only a part is listed here, and it is no random draw. Many entries were measured with a wide error.
# Test system: EfPiwi piRISC loaded with piRNA #1 (26 nt)
# Assay: pre-steady-state target cleavage rate (min^-1); guide: piRNA #1 5'p-UGAGGUAGUAGGUUGUAUAGUAUCCA; MIWI and MILI are mouse PIWI proteins and EfPiwi is from a freshwater sponge; tags in brackets are library labels; higher = faster piRNA-guided slicing of the target
# Conditions: auxiliary factor: 500 nM Ephydatia muelleri Gtsf1
# In short: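 In this Cleave-'n-Seq assay, uncleaved targets were sequenced and normalised to depth and to weakly complementary targets. They came from a transcribed, DNA-blocked target RNA library […] mixed with 1 nM active affinity-purified piRISC carrying one synthetic guide, with or without 500 nM GTSF1 partner protein, in HEPES–potassium acetate buffer at 33 °C for 0–8 or 0–960 min. After three trials were pooled and k3 was capped at 0.0001 min^-1, the pre-steady-state cleavage rate was obtained from a burst-and-steady-state fit.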
row,Sequence,pre-steady-state target cleavage rate
1,GGAGACCAUACAAUAGAACCUACUACCUCA,0.00131 ± 0.0048
2,GGAGACCAUACUAUACAACCUACUACCUCCA,0.0119 ± 0.0039
3,GGAGACCUAUGUAUACAACGUACUACCUCA,0.00163 ± 0.0035
4,GGAGUGGAUACUAUACAAGCUACUACCUGA,0.00454 ± 0.0019
5,GGAGACCUUAGUAUACAACCUACUACCUCA,0.0563 ± 0.02
6,GGAGACGAUACGUAUACAACCUACUACCUCA,0.00952 ± 0.0048
7,GGAGACCUAUGAUAUGUUGGUACUACCAUCA,0.000689 ± 0.0059
8,GGAGACCUAUGUAUACAACCUACUACUUCA,0.00207 ± 0.0045
9,GGAGACGAUACUUUACAACCUACUACCUGA,0.00356 ± 0.0024
10,GGAGAGGAUACUAUACAACCUACUACCUCCA,0.142 ± 0.054
11,GGAGUGGAAUACUAUACAACCUACUACCUCA,0.122 ± 0.045
12,GGAGUGGUAUCUAUACAACCUACUACCUCA,0.0613 ± 0.023
13,GGAGACCUAUGAUAUGUUGCUACUACUCUCA,0.000936 ± 0.0071
14,GGAGACCAUAUCUAUACAACCUACUACCUCA,0.124 ± 0.051
15,GGAGACCUAUGAUAUGUACCAACUACGUCA,0.00042 ± 0.012
16,GGAGACGUUACUAUUCAACCUACUACCUCA,0.00346 ± 0.0043
17,GGAGACCUAAGUAUACAACCUACUACCACA,0.00204 ± 0.0041
18,GGAGACCUAACUAUACAACCUAUCUACCUCA,0.00181 ± 0.0046
19,GGAGACCUAUGAUAUGUAGCUACUACGUCA,0.000648 ± 0.0095
20,GGAGACCUAUGUAUACAACCUACUACGUCA,0.00205 ± 0.0044
21,GGAGACCUUAGUAUACAACCAACUACCUCA,0.000442 ± 0.0055
22,GGAGACGAUACUAUUCAACCUACUACCACA,0.00322 ± 0.0017
23,GGAGACCUUACUAUACAACCUACUAGCUCA,0.00255 ± 0.0017
24,GGAGACCAAACUAUACAACCUACUACCUCA,0.0177 ± 0.0063

# Reformatted as tab-separated lines: part of the list above.
row	Sequence	pre-steady-state target cleavage rate
3	GGAGACCUAUGUAUACAACGUACUACCUCA	0.00163 ± 0.0035
18	GGAGACCUAACUAUACAACCUAUCUACCUCA	0.00181 ± 0.0046
